# Laboratory results published in the supplement of paper PMC12067093, “Discovery and optimisation of a covalent ligand for TRIM25 and its application to targeted protein ubiquitination” (Chemical Science, 2025).
# The other results are listed elsewhere or left out.
# Compound: Cc1cc(ccc1-c1ccccc1)C(=O)N1CCCN(CC1)C(=O)CCl [compound 10]
# Assay: probe-labelled cysteine peptide fold change vs DMSO (competition) (log2 fold change); higher = less target engagement (more negative = stronger competition)
# Conditions: THP-1, incubation time: 4 h
# 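Note: competitive profiling in live THP-1 cells: cysteine peptides tagged with an iodoacetamide desthiobiotin (IA-DTB) probe, intensity after compound treatment relative to DMSO-treated cells.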
Target,probe-labelled cysteine peptide fold change (50 µM),probe-labelled cysteine peptide fold change (10 µM)
MYO18A_Q92614_1155_AVEELLECLDLEK (UniProt Q92614),0.0501,–
NAXE_Q8NCW5_283_KYQLNLPPYPDTECVYR (UniProt Q8NCW5),-0.122,-0.141
NBEAL2_Q6ZNJ1_1661_CSWLVPLVR (UniProt Q6ZNJ1),0.0341,0.185
MYO9B_Q13459_863_KELCFDDELVLQQLR (UniProt Q13459),0.182,-0.207
NAA50_Q9GZZ1_61_LAYFNDIAVGAVCCR (UniProt Q9GZZ1),-0.105,0.0194
NAXD_Q8IW45_82_IGVVGGCQEYTGAPYFAAISALK (UniProt Q8IW45),-0.00057,-0.148
NCF2_P19878_291_GLVPCNYLEPVELR (UniProt P19878),-0.0202,0.107
NBEAL2_Q6ZNJ1_1491_GQVFSVLTQLGASATLVRPPDCIK (UniProt Q6ZNJ1),0.129,-0.137
NAT1_P18440_44_AVPFENLNIHCGDAMDLGLEAIFDQVVRR (UniProt P18440),-0.728,-0.215
MYSM1_Q5VVJ2_564_SSFDPFQLIPCNFFSEEK (UniProt Q5VVJ2),0.101,0.0482
NBR1_Q14596_433_DVLVPCLK (UniProt Q14596),-0.0476,0.0253
NAA15_Q9BXJ9_817_NLQTCMEVLEALYDGSLGDCK (UniProt Q9BXJ9),-0.0973,0.000519
MYOF_Q9NZM1_969_AASPSELTCPPGWEWEDDAWSYDINR (UniProt Q9NZM1),0.483,0.162
NAPRT_Q6XQN6_254_AQVWLEQVCAHLGLGVQEPHPGER (UniProt Q6XQN6),0.0802,0.0383
NADSYN1_Q6IA69_686_CIENQVLQLER (UniProt Q6IA69),-0.0355,-0.0444
MYO1G_B0I1T2_965_VGELVGVLAAHCQGEGR (UniProt B0I1T2),-0.255,0.03
NCAM1_P13591_287_NDEAEYICIAENK (UniProt P13591),0.289,-0.152
NAPA_P54920_212+215_AALCHFCIDMLNAK (UniProt P54920),-0.17,0.248
NCAPD3_P42695_1484_DTPACSR (UniProt P42695),-0.372,-0.0913

Target,probe-labelled cysteine peptide fold change (50 µM),probe-labelled cysteine peptide fold change (10 µM)
NAPRT_Q6XQN6_48_RCPFGGAFALAAGLR (UniProt Q6XQN6),0.199,-0.818
NAA16_Q6N069_529_HFFEITDDQFDFHTYCMR (UniProt Q6N069),0.323,0.0727
MYO18A_Q92614_1199_NLTLFQAACR (UniProt Q92614),0.0241,-0.11
MYO1G_B0I1T2_979_VSDCIPLSHR (UniProt B0I1T2),0.618,0.044
NADSYN1_Q6IA69_338_YHSPEEEISLGPACWLWDFLRR (UniProt Q6IA69),0.263,0.151
MYO9B_Q13459_1876_ITTCVEMLIK (UniProt Q13459),-0.0605,0.0944
N4BP2_Q86UW6_1096_STFVEESELTSADESENLNILCK (UniProt Q86UW6),-0.343,-0.0224
NCDN_Q9UBB6_469_LLLPGWCHLTVEDGPR (UniProt Q9UBB6),-0.0266,0.142
NCBP1_Q09161_320_FVIEENLHCIIK (UniProt Q09161),-0.00415,0.00618
NCAPG2_Q86XI2_964_MLECIAR (UniProt Q86XI2),0.164,0.193
MYO6_Q9UM54_1102_DTINTSCDIELLAACREEFHR (UniProt Q9UM54),-0.382,-0.173
MYO1G_B0I1T2_831_QDWGCR (UniProt B0I1T2),–,-0.053
NAPA_P54920_103_ADPQEAINCLMR (UniProt P54920),0.215,0.18
NCBP1_Q09161_261_HILRPYLAFDSILCEALQHNLPPFTPPPHTEDSVYPMPR (UniProt Q09161),0.119,0.0928
NCAPD3_P42695_867_YIFTLGDIAQLCPAR (UniProt P42695),0.0129,0.0523
NAGK_Q9UJ70_268_IGLPILCVGSVWK (UniProt Q9UJ70),0.652,-0.159
MYO1G_B0I1T2_472_GILAVLDEACSSAGTITDR (UniProt B0I1T2),0.136,0.171
NCK2_O43639_343_VQLVDNVYCIGQR (UniProt O43639),0.126,0.254
NADK2_Q4G0N4_311_SSGLNLCTGTGSK (UniProt Q4G0N4),-0.192,-0.0936

# 2 records drawn at random from the list so far:
Target,probe-labelled cysteine peptide fold change (50 µM),probe-labelled cysteine peptide fold change (10 µM)
NADSYN1_Q6IA69_338_YHSPEEEISLGPACWLWDFLRR (UniProt Q6IA69),0.263,0.151
NCDN_Q9UBB6_469_LLLPGWCHLTVEDGPR (UniProt Q9UBB6),-0.0266,0.142
